Values joined by “and” are separate entries in the source; they are usually repeats but may differ in a detail not shown here. Equal values may be shown once. The list shows a part of the results. Most values come without repeats; read them as rough.

In the assay the test system is Neuro-2a. In words: neurite formation score, plate-normalized to DMSO control mean 5.04 (score (0-8 scale)); higher = more or longer neurites. The conditions noted are these: 10 µM.
As to `Cc1cnc(-c2cnc(NCCNc3ccc(C#N)cn3)nc2-c2ccc(Cl)cc2Cl)[nH]1`, the neurite formation score is 3.43 and 4.21. Molecule `COc1cc(N2CCC(N(C)C)CC2)ccc1Nc1ncc(Cl)c(Nc2ccccc2P(C)(C)=O)n1` gave a neurite formation score of 4.54. The molecule `CN(C)Cc1cccc(N=C(c2ccccc2)c2c(O)[nH]c3cc(C(N)=O)ccc23)c1` returned a neurite formation score of 4.52. The molecule `O=C(NCc1cccc(O)c1)Nc1nc(-c2ccncc2)cs1` registered a neurite formation score of 4.41.

For the origin of these results see the supplement of paper PMC8047044.
